Numbering of substitutions follows the chain as printed. These are yes or no findings as the source states them, for the method shown. Binding seen in cells or lysates may run through a third protein. Some binding calls cover weakened binding; strength is not graded here. Sequences can lack the tags named with a protein.
Columns and labels:
Assay in all cases: pull-down; hexa-histidine-tagged recombinant protein (~5 ug) on Ni-NTA agarose mixed with cell lysate containing EGFP-Cdc42 pre-incubated with GTPgamma-S or GDP and 20 mM EDTA (30 C, 15 min); 4 C, 25 min; eluted with 400 mM imidazole; western blot; the results are told for the GTPgamma-S-loaded …; only the target purified
[1] = target: T1, hexa-histidine-tagged CIP4-FDR (Mus musculus) (UniProt Q8CJ53)
T1 sequence: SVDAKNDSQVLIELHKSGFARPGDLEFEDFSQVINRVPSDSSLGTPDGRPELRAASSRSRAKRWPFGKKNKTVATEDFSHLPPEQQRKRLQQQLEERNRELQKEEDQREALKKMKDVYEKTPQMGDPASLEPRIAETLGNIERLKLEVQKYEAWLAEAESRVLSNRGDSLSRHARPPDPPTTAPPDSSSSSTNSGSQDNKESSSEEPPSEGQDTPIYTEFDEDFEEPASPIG

By UniProt entry, the sequences of proteins in these tests, tags left out.
UniProt P60953: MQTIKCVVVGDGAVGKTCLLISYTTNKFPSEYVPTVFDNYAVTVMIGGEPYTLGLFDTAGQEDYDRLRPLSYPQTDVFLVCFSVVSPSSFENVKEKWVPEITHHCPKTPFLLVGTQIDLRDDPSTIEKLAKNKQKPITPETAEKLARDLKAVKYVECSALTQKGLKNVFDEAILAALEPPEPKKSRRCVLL

[2] = target: T2, hexa-histidine-tagged CIP4-FDR(4S) (Mus musculus) (UniProt Q8CJ53)
T2 sequence: T1 sequence with L90S, L144S, Y151S, W154S

[3] = target: T3, hexa-histidine-tagged CIP4-FDR(IST) (Mus musculus) (UniProt Q8CJ53)
T3 sequence: T1 sequence with M124I, G125S, D126T

Measured: binding

EGFP-fused Cdc42 (from UniProt P60953 1-191)
binds: all assays above

From article PMC10393992 (Nature Communications, 2023)
